Laboratory results: PubChem BioAssay AID1508597 (Cure First, 2020)

Test: 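Genes whose silencing sensitises or protects ovarian cancer cells against rucaparib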 (primary screen)
Cell system: human ovarian carcinoma lines grown from tumours: OCI-P5x (papillary serous) and OCI-C5x (clear cell)
Reagents: siRNA pool against human genes, 1.25 pmol siRNA per well
Timing: 72 h or 96 h, depending on the cell culture
Conditions: rucaparib 20 µM (about IC30) or vehicle, present until read-out
Measured: 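Luminescent ATP-based viability assay read 72 or 96 h after transfection, depending on culture, given as normalised percent viability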
Scale: viability, normalised: higher = more viable cells remaining
Hit rule: 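a well counts as a hit if its normalised viability is under 80 percent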
Meaning of the calls: active = viability under 80%; inactive = viability 80% or more
Here is one part, drawn at random, of about 2,100 reagents. 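Calls flag viability under 80% in either arm, not effects specific to rucaparib; the reference for percent is not stated.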 A number with no mark means an inactive call. A reagent listed more than once was tested more than once; the source does not tell the runs apart. Not stated in the record: the 100% reference.

gene symbol	rucaparib or vehicle	cell line	technical replicate	viability, normalised (%)
RYK	Rucaparib	OCI-C5x (clear cell)	1	53.4 (active)
RYK	Rucaparib	OCI-C5x (clear cell)	2	67.5 (active)
RYK	Rucaparib	OCI-C5x (clear cell)	3	60.8 (active)
RYK	Rucaparib	OCI-P5x (serous)	1	88.6
RYK	Rucaparib	OCI-P5x (serous)	2	68.1 (active)
RYK	Rucaparib	OCI-P5x (serous)	3	70.6 (active)
RYK	Vehicle	OCI-C5x (clear cell)	1	62.1 (active)
RYK	Vehicle	OCI-C5x (clear cell)	2	56.6 (active)
RYK	Vehicle	OCI-C5x (clear cell)	3	75.3 (active)
RYK	Vehicle	OCI-P5x (serous)	1	88.7
RYK	Vehicle	OCI-P5x (serous)	2	62.3 (active)
RYK	Vehicle	OCI-P5x (serous)	3	91.5
MAPK10	Rucaparib	OCI-C5x (clear cell)	1	47.1 (active)
MAPK10	Rucaparib	OCI-C5x (clear cell)	2	65.1 (active)
MAPK10	Rucaparib	OCI-C5x (clear cell)	3	60 (active)
MAPK10	Rucaparib	OCI-P5x (serous)	1	91.4
MAPK10	Rucaparib	OCI-P5x (serous)	2	91.8
MAPK10	Rucaparib	OCI-P5x (serous)	3	81
MAPK10	Vehicle	OCI-C5x (clear cell)	1	63.6 (active)
MAPK10	Vehicle	OCI-C5x (clear cell)	2	75.5 (active)
MAPK10	Vehicle	OCI-C5x (clear cell)	3	82.9
MAPK10	Vehicle	OCI-P5x (serous)	1	74 (active)
MAPK10	Vehicle	OCI-P5x (serous)	2	84.8
MAPK10	Vehicle	OCI-P5x (serous)	3	89.5
HIRIP3	Rucaparib	OCI-C5x (clear cell)	1	80.7
HIRIP3	Rucaparib	OCI-C5x (clear cell)	2	42.3 (active)
HIRIP3	Rucaparib	OCI-C5x (clear cell)	3	43 (active)
HIRIP3	Rucaparib	OCI-P5x (serous)	1	68.2 (active)
HIRIP3	Rucaparib	OCI-P5x (serous)	2	58.1 (active)
HIRIP3	Rucaparib	OCI-P5x (serous)	3	54.5 (active)
HIRIP3	Vehicle	OCI-C5x (clear cell)	1	59.2 (active)
HIRIP3	Vehicle	OCI-C5x (clear cell)	2	67.8 (active)
HIRIP3	Vehicle	OCI-C5x (clear cell)	3	58.4 (active)
HIRIP3	Vehicle	OCI-P5x (serous)	1	65.7 (active)
HIRIP3	Vehicle	OCI-P5x (serous)	2	59.5 (active)
HIRIP3	Vehicle	OCI-P5x (serous)	3	68.7 (active)
MPHOSPH8	Rucaparib	OCI-C5x (clear cell)	1	40 (active)
MPHOSPH8	Rucaparib	OCI-C5x (clear cell)	2	48.6 (active)
MPHOSPH8	Rucaparib	OCI-C5x (clear cell)	3	46.6 (active)
MPHOSPH8	Rucaparib	OCI-P5x (serous)	1	67.9 (active)
MPHOSPH8	Rucaparib	OCI-P5x (serous)	2	61 (active)
MPHOSPH8	Rucaparib	OCI-P5x (serous)	3	63.5 (active)
MPHOSPH8	Vehicle	OCI-C5x (clear cell)	1	57.3 (active)
MPHOSPH8	Vehicle	OCI-C5x (clear cell)	2	60.1 (active)
MPHOSPH8	Vehicle	OCI-C5x (clear cell)	3	54.8 (active)
MPHOSPH8	Vehicle	OCI-P5x (serous)	1	63.1 (active)
MPHOSPH8	Vehicle	OCI-P5x (serous)	2	69 (active)
MPHOSPH8	Vehicle	OCI-P5x (serous)	3	65.4 (active)
POLD4	Rucaparib	OCI-C5x (clear cell)	1	40.4 (active)
POLD4	Rucaparib	OCI-C5x (clear cell)	2	56.9 (active)
POLD4	Rucaparib	OCI-C5x (clear cell)	3	42.6 (active)
POLD4	Rucaparib	OCI-P5x (serous)	1	51.8 (active)
POLD4	Rucaparib	OCI-P5x (serous)	2	50.4 (active)
POLD4	Rucaparib	OCI-P5x (serous)	3	50.4 (active)
POLD4	Vehicle	OCI-C5x (clear cell)	1	56.9 (active)
POLD4	Vehicle	OCI-C5x (clear cell)	2	51 (active)
POLD4	Vehicle	OCI-C5x (clear cell)	3	43 (active)
POLD4	Vehicle	OCI-P5x (serous)	1	69.3 (active)
POLD4	Vehicle	OCI-P5x (serous)	2	58.8 (active)
POLD4	Vehicle	OCI-P5x (serous)	3	70.9 (active)
SSRP1	Rucaparib	OCI-C5x (clear cell)	1	81.1
SSRP1	Rucaparib	OCI-C5x (clear cell)	1	63.3 (active)
SSRP1	Rucaparib	OCI-C5x (clear cell)	2	77.5 (active)
SSRP1	Rucaparib	OCI-C5x (clear cell)	2	41.6 (active)
SSRP1	Rucaparib	OCI-C5x (clear cell)	3	58.4 (active)
SSRP1	Rucaparib	OCI-C5x (clear cell)	3	66.9 (active)
SSRP1	Rucaparib	OCI-P5x (serous)	1	88.9
SSRP1	Rucaparib	OCI-P5x (serous)	1	32.2 (active)
SSRP1	Rucaparib	OCI-P5x (serous)	2	44.2 (active)
SSRP1	Rucaparib	OCI-P5x (serous)	2	61.2 (active)
SSRP1	Rucaparib	OCI-P5x (serous)	3	76 (active)
SSRP1	Rucaparib	OCI-P5x (serous)	3	37.9 (active)
SSRP1	Vehicle	OCI-C5x (clear cell)	1	51.2 (active)
SSRP1	Vehicle	OCI-C5x (clear cell)	1	47.4 (active)
SSRP1	Vehicle	OCI-C5x (clear cell)	2	46.2 (active)
SSRP1	Vehicle	OCI-C5x (clear cell)	2	67.7 (active)
SSRP1	Vehicle	OCI-C5x (clear cell)	3	51.3 (active)
SSRP1	Vehicle	OCI-C5x (clear cell)	3	36.3 (active)
SSRP1	Vehicle	OCI-P5x (serous)	1	55.7 (active)
SSRP1	Vehicle	OCI-P5x (serous)	1	82.7
SSRP1	Vehicle	OCI-P5x (serous)	2	79.7 (active)
SSRP1	Vehicle	OCI-P5x (serous)	2	64.6 (active)
SSRP1	Vehicle	OCI-P5x (serous)	3	82.9
SSRP1	Vehicle	OCI-P5x (serous)	3	73.9 (active)
